These results are taken from the supplement of paper PMC10849652.

The chains behind the UniProt entries cited, without tags or fusion partners. Where a name states a change or a piece, a line headed by the entry shows the natural chain unless it says otherwise.
UniProt Q92520: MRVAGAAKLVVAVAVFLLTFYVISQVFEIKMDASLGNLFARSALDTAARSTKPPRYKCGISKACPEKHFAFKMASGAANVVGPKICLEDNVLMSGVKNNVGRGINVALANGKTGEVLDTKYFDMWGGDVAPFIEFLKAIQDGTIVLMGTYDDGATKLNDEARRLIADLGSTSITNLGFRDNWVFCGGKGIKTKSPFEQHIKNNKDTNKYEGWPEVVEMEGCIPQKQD
UniProt Q9NWM8: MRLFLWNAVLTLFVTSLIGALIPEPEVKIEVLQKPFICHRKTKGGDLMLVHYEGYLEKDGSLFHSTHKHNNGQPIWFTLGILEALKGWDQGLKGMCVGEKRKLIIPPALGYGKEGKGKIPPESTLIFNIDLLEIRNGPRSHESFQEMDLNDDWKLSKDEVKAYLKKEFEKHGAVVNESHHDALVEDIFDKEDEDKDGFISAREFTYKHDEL
UniProt Q9UKT5: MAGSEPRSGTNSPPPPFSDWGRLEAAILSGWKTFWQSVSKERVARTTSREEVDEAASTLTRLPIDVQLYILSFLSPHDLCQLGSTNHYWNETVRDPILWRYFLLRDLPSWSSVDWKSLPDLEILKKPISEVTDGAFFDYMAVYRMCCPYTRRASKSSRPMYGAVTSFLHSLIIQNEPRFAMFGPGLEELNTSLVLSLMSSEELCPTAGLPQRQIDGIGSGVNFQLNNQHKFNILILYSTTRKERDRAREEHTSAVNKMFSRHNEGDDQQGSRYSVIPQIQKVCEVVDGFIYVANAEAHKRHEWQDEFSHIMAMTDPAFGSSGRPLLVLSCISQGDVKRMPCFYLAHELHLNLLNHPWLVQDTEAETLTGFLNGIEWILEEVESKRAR
UniProt Q6UN15: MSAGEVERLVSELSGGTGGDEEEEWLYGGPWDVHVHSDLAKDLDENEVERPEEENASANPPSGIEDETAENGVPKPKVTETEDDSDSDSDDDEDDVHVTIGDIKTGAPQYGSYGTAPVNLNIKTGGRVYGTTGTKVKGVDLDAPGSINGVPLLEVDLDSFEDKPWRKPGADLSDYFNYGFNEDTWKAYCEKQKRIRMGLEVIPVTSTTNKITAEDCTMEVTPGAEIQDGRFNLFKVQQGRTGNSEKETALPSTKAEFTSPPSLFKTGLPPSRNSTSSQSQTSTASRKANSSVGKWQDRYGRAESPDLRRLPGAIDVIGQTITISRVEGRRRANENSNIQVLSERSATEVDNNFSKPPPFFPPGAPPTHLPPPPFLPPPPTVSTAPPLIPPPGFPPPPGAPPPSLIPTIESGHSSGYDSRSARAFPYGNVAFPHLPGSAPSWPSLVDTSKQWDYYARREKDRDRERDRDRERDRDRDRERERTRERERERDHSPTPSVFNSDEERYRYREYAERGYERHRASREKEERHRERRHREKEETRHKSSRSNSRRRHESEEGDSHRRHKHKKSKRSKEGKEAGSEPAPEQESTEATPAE
UniProt Q9H9S5: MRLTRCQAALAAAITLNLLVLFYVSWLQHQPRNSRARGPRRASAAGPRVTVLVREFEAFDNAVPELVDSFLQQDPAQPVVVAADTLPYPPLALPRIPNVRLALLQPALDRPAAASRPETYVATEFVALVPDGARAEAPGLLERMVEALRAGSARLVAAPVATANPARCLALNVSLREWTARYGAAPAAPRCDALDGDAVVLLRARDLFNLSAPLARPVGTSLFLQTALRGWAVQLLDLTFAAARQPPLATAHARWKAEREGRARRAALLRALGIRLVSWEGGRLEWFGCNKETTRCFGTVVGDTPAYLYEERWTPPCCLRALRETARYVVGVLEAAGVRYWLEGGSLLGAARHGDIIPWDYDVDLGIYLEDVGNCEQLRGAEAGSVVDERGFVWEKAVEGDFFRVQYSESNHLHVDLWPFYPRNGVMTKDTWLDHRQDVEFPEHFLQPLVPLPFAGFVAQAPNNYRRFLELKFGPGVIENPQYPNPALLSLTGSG
UniProt Q96ND0: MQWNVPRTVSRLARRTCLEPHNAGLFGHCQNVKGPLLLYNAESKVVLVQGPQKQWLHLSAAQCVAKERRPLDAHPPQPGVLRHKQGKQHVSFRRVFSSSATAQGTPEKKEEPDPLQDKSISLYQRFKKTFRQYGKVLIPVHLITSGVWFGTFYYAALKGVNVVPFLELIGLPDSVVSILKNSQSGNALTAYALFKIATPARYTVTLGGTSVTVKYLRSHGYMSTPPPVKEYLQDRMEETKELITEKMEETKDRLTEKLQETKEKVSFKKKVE
UniProt P12318: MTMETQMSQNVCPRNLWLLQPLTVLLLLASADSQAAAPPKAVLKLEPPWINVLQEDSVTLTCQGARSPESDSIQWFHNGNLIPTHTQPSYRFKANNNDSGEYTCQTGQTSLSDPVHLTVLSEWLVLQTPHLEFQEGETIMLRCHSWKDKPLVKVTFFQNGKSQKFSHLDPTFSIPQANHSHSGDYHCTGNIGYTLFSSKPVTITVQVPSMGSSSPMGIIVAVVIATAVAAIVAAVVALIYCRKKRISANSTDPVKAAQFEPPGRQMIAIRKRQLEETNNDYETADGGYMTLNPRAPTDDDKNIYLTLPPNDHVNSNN
UniProt Q14315, whole entry, looked up: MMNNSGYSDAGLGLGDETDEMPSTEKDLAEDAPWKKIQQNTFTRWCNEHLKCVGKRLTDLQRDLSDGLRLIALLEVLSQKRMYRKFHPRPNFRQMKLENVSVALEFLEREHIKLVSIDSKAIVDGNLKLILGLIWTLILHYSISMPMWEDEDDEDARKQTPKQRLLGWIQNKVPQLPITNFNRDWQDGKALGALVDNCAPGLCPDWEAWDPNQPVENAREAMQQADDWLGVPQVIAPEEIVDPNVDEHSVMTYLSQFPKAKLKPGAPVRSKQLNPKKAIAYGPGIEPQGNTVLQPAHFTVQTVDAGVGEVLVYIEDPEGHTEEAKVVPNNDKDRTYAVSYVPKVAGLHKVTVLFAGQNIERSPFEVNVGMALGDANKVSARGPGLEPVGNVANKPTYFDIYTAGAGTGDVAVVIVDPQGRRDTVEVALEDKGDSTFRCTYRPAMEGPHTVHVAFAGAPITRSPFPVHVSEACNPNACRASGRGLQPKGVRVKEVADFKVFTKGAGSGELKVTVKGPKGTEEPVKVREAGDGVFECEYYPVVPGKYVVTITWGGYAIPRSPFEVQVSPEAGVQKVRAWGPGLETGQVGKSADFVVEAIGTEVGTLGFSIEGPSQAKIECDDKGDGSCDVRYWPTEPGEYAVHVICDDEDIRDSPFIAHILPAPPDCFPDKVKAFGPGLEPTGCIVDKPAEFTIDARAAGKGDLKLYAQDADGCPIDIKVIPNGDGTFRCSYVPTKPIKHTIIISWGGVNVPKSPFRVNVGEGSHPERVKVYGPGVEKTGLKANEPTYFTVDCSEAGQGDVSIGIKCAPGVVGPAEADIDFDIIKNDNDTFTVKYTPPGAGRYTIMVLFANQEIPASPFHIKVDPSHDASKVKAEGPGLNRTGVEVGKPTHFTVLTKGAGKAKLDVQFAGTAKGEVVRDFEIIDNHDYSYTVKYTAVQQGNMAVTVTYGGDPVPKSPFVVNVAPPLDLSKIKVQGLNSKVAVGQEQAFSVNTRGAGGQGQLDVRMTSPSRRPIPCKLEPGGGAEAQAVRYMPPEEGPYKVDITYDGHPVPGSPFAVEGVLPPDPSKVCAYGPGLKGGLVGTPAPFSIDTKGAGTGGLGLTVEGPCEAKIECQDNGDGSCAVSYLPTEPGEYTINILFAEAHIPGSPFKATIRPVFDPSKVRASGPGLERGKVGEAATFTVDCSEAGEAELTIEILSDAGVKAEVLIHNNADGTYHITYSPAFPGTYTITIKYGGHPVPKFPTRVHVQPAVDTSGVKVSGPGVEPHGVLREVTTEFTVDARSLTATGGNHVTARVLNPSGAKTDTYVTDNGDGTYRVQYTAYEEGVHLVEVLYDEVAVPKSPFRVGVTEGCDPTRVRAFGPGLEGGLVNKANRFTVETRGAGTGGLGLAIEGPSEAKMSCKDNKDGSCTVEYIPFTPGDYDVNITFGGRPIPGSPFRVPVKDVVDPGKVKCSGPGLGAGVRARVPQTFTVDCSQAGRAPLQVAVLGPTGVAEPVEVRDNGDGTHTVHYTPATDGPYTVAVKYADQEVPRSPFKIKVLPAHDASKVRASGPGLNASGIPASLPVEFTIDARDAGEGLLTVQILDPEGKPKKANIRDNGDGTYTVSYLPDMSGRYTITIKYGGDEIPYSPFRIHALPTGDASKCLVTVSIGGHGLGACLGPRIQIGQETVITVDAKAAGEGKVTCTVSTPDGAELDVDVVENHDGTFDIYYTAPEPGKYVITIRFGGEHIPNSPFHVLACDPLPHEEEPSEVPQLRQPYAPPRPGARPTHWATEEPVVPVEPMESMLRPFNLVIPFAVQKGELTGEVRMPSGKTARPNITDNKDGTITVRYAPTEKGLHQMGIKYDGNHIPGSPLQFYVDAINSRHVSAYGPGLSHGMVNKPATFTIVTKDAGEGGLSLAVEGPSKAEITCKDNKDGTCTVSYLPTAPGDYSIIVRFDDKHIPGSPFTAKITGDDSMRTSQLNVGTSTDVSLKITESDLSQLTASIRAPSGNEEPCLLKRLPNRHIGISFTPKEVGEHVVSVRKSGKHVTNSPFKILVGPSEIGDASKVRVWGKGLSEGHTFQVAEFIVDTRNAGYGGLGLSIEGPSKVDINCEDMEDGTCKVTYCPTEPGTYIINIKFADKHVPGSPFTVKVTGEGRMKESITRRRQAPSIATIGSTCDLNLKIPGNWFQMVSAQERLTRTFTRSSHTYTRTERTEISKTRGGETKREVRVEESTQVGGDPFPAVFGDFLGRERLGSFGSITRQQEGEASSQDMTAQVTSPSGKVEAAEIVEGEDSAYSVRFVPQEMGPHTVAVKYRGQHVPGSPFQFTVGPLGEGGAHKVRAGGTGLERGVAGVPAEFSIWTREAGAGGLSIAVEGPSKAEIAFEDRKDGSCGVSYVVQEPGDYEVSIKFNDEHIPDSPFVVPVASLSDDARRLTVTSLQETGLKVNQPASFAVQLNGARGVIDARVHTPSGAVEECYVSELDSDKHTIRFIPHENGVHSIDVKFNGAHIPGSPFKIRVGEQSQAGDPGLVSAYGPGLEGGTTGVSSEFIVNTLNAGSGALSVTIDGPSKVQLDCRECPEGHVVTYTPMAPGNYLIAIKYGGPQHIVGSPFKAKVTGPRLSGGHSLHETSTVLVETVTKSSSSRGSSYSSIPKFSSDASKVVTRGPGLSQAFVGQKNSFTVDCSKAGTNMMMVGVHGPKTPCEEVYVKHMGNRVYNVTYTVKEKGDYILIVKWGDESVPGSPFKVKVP
UniProt Q9UBU6: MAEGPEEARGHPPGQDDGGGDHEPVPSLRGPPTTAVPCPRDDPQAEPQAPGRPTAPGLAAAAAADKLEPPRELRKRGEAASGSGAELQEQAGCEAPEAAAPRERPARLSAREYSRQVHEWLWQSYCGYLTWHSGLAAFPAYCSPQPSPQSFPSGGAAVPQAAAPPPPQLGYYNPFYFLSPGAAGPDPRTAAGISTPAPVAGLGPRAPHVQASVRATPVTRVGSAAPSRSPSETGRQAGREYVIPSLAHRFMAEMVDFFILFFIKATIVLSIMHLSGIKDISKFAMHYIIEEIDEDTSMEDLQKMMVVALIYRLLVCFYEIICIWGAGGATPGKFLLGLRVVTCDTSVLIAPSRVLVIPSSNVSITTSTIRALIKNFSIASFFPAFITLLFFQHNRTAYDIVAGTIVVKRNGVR
UniProt Q96CD0: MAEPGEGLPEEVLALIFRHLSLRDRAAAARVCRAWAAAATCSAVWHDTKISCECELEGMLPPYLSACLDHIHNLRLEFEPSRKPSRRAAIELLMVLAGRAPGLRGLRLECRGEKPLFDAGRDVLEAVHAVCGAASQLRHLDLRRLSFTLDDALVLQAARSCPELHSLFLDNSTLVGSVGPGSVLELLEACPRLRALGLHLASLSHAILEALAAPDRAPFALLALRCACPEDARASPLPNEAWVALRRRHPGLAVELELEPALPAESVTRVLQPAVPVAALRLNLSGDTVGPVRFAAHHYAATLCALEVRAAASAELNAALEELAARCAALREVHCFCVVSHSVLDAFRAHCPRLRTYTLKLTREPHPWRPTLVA
UniProt Q8IW50: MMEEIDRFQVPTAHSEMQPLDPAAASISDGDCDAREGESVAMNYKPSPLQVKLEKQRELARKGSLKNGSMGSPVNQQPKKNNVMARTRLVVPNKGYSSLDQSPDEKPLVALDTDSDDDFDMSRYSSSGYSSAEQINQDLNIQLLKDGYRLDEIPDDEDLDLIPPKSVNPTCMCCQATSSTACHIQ
UniProt Q9NYF3: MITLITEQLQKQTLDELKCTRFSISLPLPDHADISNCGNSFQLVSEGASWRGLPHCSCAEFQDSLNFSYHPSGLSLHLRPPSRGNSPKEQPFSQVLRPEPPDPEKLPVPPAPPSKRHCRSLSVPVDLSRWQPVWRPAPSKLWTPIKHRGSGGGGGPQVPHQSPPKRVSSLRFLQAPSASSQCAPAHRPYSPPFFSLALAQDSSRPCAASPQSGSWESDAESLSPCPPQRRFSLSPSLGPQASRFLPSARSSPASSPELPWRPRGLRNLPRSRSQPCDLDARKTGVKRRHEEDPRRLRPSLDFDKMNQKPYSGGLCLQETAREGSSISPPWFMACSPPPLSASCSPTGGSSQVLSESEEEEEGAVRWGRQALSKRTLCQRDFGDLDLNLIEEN

The list shows a part of the results.

Compound in this experiment: c1cn2cc(-c3ccc4cn[nH]c4c3)nc(Nc3ccc(N4CCOCC4)cc3)c2n1 [entospletinib]
The experiment in a line: log2 fold change, soluble protein after heating vs DMSO (PISA); higher = thermal stabilisation; K562 cells, 10 uM, 30 min; active = over 0.2 and 3.5 SD of the protein, either way, in both replicates (recomputed). In a few lines:
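Quantification of soluble protein used TMTpro 16plex LC-MS/MS, with channel sums equalised. Samples were the supernatant after 21,000xg for 90 min of pooled aliquots from K562 cells (2×10^6 cells/mL) treated with 10 μM compound for 30 min, heated for 3 min over 48°C-58°C, and extracted in PBS with 0.5% NP-40 at 4°C. Values, from duplicates, describe thermal stability against control samples on a log2 fold-change scale.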
On to FLNB isoform 8 (UniProt O75369), for which the log2 fold change is inactive: 0.046.

As to FAM3C (UniProt Q92520), the log2 fold change was inactive: -0.03.

In the case of FGB (UniProt P02675), the log2 fold change was inactive: 0.16.

With FKBP14 (UniProt Q9NWM8), the log2 fold change was inactive: -0.045.

On to FAM98B (UniProt Q52LJ0), for which the log2 fold change was inactive: 0.058.

Regarding FER (UniProt P16591), the log2 fold change is inactive: 0.465.

As to FAM76A isoform 3 (UniProt Q8TAV0), the log2 fold change is inactive: 0.09.

Take FBXO4 (UniProt Q9UKT5): the log2 fold change is inactive: 0.01.

For FKBP9 (UniProt O95302), the log2 fold change was inactive: 0.027.

As for FAM210B (UniProt Q96KR6), the log2 fold change was inactive: -0.022.

In the case of FHL2 (UniProt Q14192), the log2 fold change is inactive: -0.008.

Turning to FAT3 isoform 1 (UniProt Q8TDW7), the log2 fold change is inactive: 0.352.

In the case of FIP1L1 (UniProt Q6UN15), the log2 fold change is inactive: 0.066.

As for FKRP (UniProt Q9H9S5), the log2 fold change is inactive: -0.318.

As to FAM210A (UniProt Q96ND0), the log2 fold change was inactive: 0.039.

For the target FKBPL (UniProt Q9UIM3), the log2 fold change was inactive: -0.012.

For the target FCGR2A (UniProt P12318), the log2 fold change is inactive: 0.145.

As for FLNC (UniProt Q14315), the log2 fold change is inactive: 0.015.

For FLT4 (UniProt P35916), the log2 fold change was inactive: -0.058.

With FAM8A1 (UniProt Q9UBU6), the log2 fold change was inactive: 0.014.

On to FNBP4 isoform 2 (UniProt Q8N3X1), for which the log2 fold change was inactive: 0.011.

Consider FBXL8 (UniProt Q96CD0), for which the log2 fold change was inactive: 0.016.

In the case of FAM219A (UniProt Q8IW50), the log2 fold change is inactive: 0.008.

With FAM89A (UniProt Q96GI7), the log2 fold change is inactive: 0.019.

As to FAR1 (UniProt Q8WVX9), the log2 fold change is inactive: -0.051.

As for FBXW9 (UniProt Q5XUX1), the log2 fold change is inactive: -0.131.

Regarding FAM53C (UniProt Q9NYF3), the log2 fold change was inactive: 0.001.

For the target FARSA (UniProt Q9Y285), the log2 fold change was inactive: 0.007.
